Results deposited as PubChem BioAssay AID686943 (Drosophila RNAi Screening Center, 2013)
The deposit covers about 23,000 reagents; below is a random part of those that have a named target and a result. 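Extra replicates exist only for a retested subset of genes; insulin dose and duration not given; both raised and lowered dpERK matter.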 Reagents against one gene are numbered here. A plus sign joins genes that one reagent is predicted to hit. Not all columns of the deposit are shown. The record does not give: the amount of reagent, the time to read-out.

Screen: 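Search across the genome for regulators of signalling from receptor tyrosine kinase to ERK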 (primary screen)
Cell system: Drosophila S2R+ haemocyte-like cells expressing YFP-tagged ERK (Rolled)
Reagent: long dsRNA against Drosophila genes
Conditions: insulin stimulation versus unstimulated cells; dose and duration not given
Detection: 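Per-plate z-scores of phospho-ERK immunostaining normalised to YFP-tagged ERK, measured with and without insulin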
Reading the numbers: replicate 1, z-score of dpERK with insulin and replicate 2, z-score of dpERK with insulin: higher = more active ERK per ERK-YFP after insulin; replicate 1, z-score of dpERK under basal conditions: higher = more basal active ERK per ERK-YFP

no.	gene	reagent	replicate 1, z-score of dpERK with insulin	replicate 2, z-score of dpERK with insulin	replicate 1, z-score of dpERK under basal conditions
1	CalpC (Calpain C)	1	0.47	0.33	0.29
2	stau (staufen)	1	0.53	0.41	0.05
3	bchs (blue cheese)	1	-0.22	-0.41	-0.01
4	CG32095	1	-0.08	-1.48	-0.21
5	CG5892	1	-0.23	0.31	0.84
6	CG42715 (retired record)	1	0.44	2.04	0.39
7	Ccp84Aa	1	-0.54	-0.39	0.22
8	Cht5 (Chitinase 5)	1	0.58	-0.07	-0.49
9	Parp16 (Poly(ADP-ribose) polymerase 16)	1	1.11	0.77	0.94
10	RpL21 (Ribosomal protein L21)	1	-0.06	-1.71	0.19
11	CG43063	1	-0.03	0	1.39
12	CG12811	1	1.08	0.37	-0.42
13	Rrp42	1	-0.52	-0.41	0.45
14	CG4945	1	0.27	0.27	0.03
15	Dhc64C (Dynein heavy chain 64C)	1	0.64	-0.4	0.88
16	CG11929	1	0.03	0.45	-0.36
17	mRpS22 (mitochondrial ribosomal protein S22)	1	1.04	0.26	-0.14
18	CG8993	1	0.09	0.51	0.5
19	CG14391	1	-0.12	-0.24	-0.15
20	crim (crimpled)	1	0.77	2.19	-0.08
21	CG15042	1	-0.1	0.7	0.67
22	stx (stuxnet)	1	-2.84	-2.11	-2.98
23	stx (stuxnet)	2	-1.65	0.26	-1.7
24	CG32590	1	0.48	0.95	0.12
25	CG14718	1	-0.41	0	-0.12
26	CG1824	1	0.19	0.51	0.14
27	Tg (Transglutaminase)	1	-0.63	-0.37	0.44
28	eIF2A (eukaryotic translation initiation factor 2A)	1	-0.33	-0.7	
29	CG15109	1	0.66	0.08	-1
30	Usp30 (Ubiquitin specific protease 30)	1	-0.6	-0.26	-0.93
31	CG31223	1	0.33	-0.22	0.5
32	His3.3B (Histone H3.3B)	1	-0.26	0.61	-0.89
33	His3.3B (Histone H3.3B)	2	-1.54	-2.69	-0.74
34	CG12355	1	-0.44	-0.18	-0.35
35	CG12355	2	-0.55	0	-0.53
36	Arp53D (Actin-related protein 53D)	1	0.02	-0.4	-0.07
37	lbl (ladybird late)	1	0.8	0.13	1.95
38	CG7611	1	-1.13	-0.77	-0.2
39	CG12831	1	0.62	-0.37	-0.17
40	CG32712	1	-0.65	-0.22	-0.28
41	Bx (Beadex)	1	-1.65	0.43	-1.52
42	Bx (Beadex)	2	0.54	1.68	0.24
43	Dgat2 (Diacylglycerol O-acyltransferase 2)	1	0.37	-0.34	1.41
44	CG30058 + CG34235 + CG34312	1	0.02	-0.18	-0.22
45	CG9030	1	0.48	1.16	-0.41
46	CG33178	1	-0.44	-1.02	-0.02
47	Sdb (SAXO downstream of blistered)	1	0.3	0.29	2.05
48	Sdb (SAXO downstream of blistered)	2	1.59	0.55	0.14
49	Sdb (SAXO downstream of blistered)	3	0.55	0.15	0.03
50	lncRNA:CR43498 (long non-coding RNA:CR43498)	1	0.43	-0.03	0.74
51	Ama (Amalgam)	1	0.82	0.5	-0.15
52	CG3916	1	-0.28	0.3	0.42
53	snf (sans fille)	1	0.81	0.39	0.22
54	nst (nesthocker)	1	0.41	-0.72	-0.95
55	CG33270	1	-2.11	-1.83	0.38
56	CG4622	1	0.37	0.31	0.6
57	Pburs (Partner of Bursicon)	1	0.1	0.06	0.31
58	obe (obelus)	1	-0.43	0.01	1.34
59	CG32808	1	0.6	0.03	-1
60	phol (pleiohomeotic like)	1	1.36	2.1	-0.34
61	nebu (nebulosa)	1	2.22	1.66	-0.59
62	nebu (nebulosa)	2	0.18	0.07	0.01
63	CG15537	1	0.33	0.09	0.38
64	atlas	1	0.14	1.16	5.09
65	ND-18 (NADH dehydrogenase (ubiquinone) 18 kDa subunit)	1	0.21	-0.96	-0.69
66	Sas10 (Something about silencing 10)	1	-0.17	0	0.39
67	OdsH (Ods-site homeobox)	1	1.43	0.61	1.05
68	Cyp301a1 (Cytochrome P450 301a1)	1	0.63	0.53	0.62
69	RhoGAP100F (Rho GTPase activating protein at 100F)	1	-0.23	-0.28	0.23
70	CG1806	1	0.62	0.97	0.51
71	CG32276	1	0.21	0.32	-0.08
72	Ccdc85	1	-0.74	-2.83	-3.68
73	exu (exuperantia)	1	-0.03	0.65	-0.67
